{"source": "patent US10801050B2", "about": "“Microorganism modified for the assimilation of levulinic acid” (priority 2015, dated 2020)", "test_system": "Ralstonia eutropha DSM428", "assay": "Quantitative proteomics of Ralstonia eutropha DSM428 cultivated with or without levulinic acid (nanoLC-MS/MS)", "type": "cell-based", "conditions": "for expression level in response to levulinic acid (protein abundance, % of total proteins): Ralstonia eutropha DSM428, LB rich medium, 5 g/L vs 0 g/L levulinic acid, up-regulated = quantity at least multiplied by 2; for % of total proteins Without LA / % of total proteins With LA: Ralstonia eutropha DSM428, shake flasks, LB rich medium, nanoLC-MS/MS protein abundance; for % of total proteins Without LA: 0 g/L levulinic acid; for % of total proteins With LA: 5 g/L levulinic acid"}
{"molecule": "Q0KA99_CUPNH: Ralstonia eutropha acyl-CoA synthetase (AMP-forming)/AMP-acid ligase II (EC 6.2.1.-), candidate for reaction A1 (protein, Uniprot Name: Q0KA99_CUPNH: Acyl-CoA synthetase (AMP forming)/AMP-acid ligase II, Ralstonia eutropha acyl-CoA synthetase (AMP-forming)/AMP-acid ligase II (EC 6.2.1.-), candidate for reaction A1) MTMQAESSPTILPIGGLSHVRGDTTIPLSEQTVPELLAQTVARYPERKAVAFREQGVRWNWREFSDAVDALAAGLHTLGLARGDRVGIWSPNRVEWLVTQFATARLGLVLVNINPAYRLSELEYALNKVGVKAIVAAEAFKTSRYLEMLQVLAPELATCAPGELQAARLPALRCVIRMGDDHTPGMLRYADVIARGTGVARSTLDAITAQLDRHDPINVQFTSGTTGAPKGATLTHRNIVNNARFIAMAMRFSEQDKLCIPVPFYHCFGMVLAVLACVSSGAAMVFPGQAFEPEATMQAVSEERCTALHGVPTMFIAQLDHPNFASYDFSSLRTGIMAGSPCPIETMKRVVSQMHMSEVTIAYGMTETSPVSFQSSTTDPLDKRTTTVGRIQPHLEVRIVDATGATVPVGETGELCTRGYSVMLGYWDDEARTAEAIRDGWMHTGDLATIDAEGYCNIVGRVKDMLIRGGENIYPREIEEFLFRHPKVQAVQVFGVPDQKYGEEVCAWIVLKPGASATEDEIRDFCRDQIAHYKIPRYIRFVDEMPMTITGKVQKFVMRERMTQDLKLSESRTA", "values": [{"measurement": "expression level in response to levulinic acid (protein abundance, % of total proteins)", "value": "up-regulated"}, {"measurement": "% of total proteins Without LA", "value": "<0.06 % of total proteins"}, {"measurement": "% of total proteins With LA", "value": "0.15 % of total proteins"}]}
{"molecule": "Q0KC00_CUPNH: subunit of a Ralstonia eutropha succinyl-CoA:3-ketoacid-coenzyme A transferase (EC 2.8.3.5), gene H16_A1331 (protein, Uniprot Name: Q0KC00_CUPNH:Succinyl coA:3- ketoacid transferase subunit A, subunit of a Ralstonia eutropha succinyl-CoA:3-ketoacid-coenzyme A transferase (EC 2.8.3.5), gene H16_A1331) MNKVYASAAEALAGVVRDGQTIAVGGFGLCGIPEALIAALRDSGAKQLTCISNNAGVDGFGLGLLLATRQISKMISSYVGENKEFERQYLAGELELEFTPQGTLAEKLRAGGSGIPAFFTKTGVGTIVAEGKEIREFDGQQYVMERSLTADVALVKAYKADKAGNLVFRRTARNFNPMCAMAGKVTIAEVEHIVETGELDPDEIHLAGIFVKRLVLNTTPEKRIEQRTVRAAS", "values": [{"measurement": "expression level in response to levulinic acid (protein abundance, % of total proteins)", "value": "up-regulated"}, {"measurement": "% of total proteins Without LA", "value": "0.25 % of total proteins"}, {"measurement": "% of total proteins With LA", "value": "0.95 % of total proteins"}]}
{"molecule": "BKTB_CUPNH: Ralstonia eutropha beta-ketothiolase (EC 2.3.1.16/EC 2.3.1.9), candidate for reaction B (protein, Uniprot name: BKTB_CUPNH : Beta-ketothiolase BktB (acetyl-coA acetyltransferase) (acetyl coA-acyltransferase), Ralstonia eutropha beta-ketothiolase (EC 2.3.1.16/EC 2.3.1.9), candidate for reaction B) MTREVVVVSGVRTAIGTFGGSLKDVAPAELGALVVREALARAQVSGDDVGHVVFGNVIQTEPRDMYLGRVAAVNGGVTINAPALTVNRLCGSGLQAIVSAAQTILLGDTDVAIGGGAESMSRAPYLAPAARWGARMGDAGLVDMMLGALHDPFHRIHMGVTAENVAKEYDISRAQQDEAALESHRRASAAIKAGYFKDQIVPVVSKGRKGDVTFDTDEHVRHDATIDDMTKLRPVFVKENGTVTAGNASGLNDAAAAVVMMERAEAERRGLKPLARLVSYGHAGVDPKAMGIGPVPATKIALERAGLQVSDLDVIEANEAFAAQACAVTKALGLDPAKVNPNGSGISLGHPIGATGALITVKALHELNRVQGRYALVTMCIGGGQGIAAIFERI", "values": [{"measurement": "expression level in response to levulinic acid (protein abundance, % of total proteins)", "value": "up-regulated"}, {"measurement": "% of total proteins Without LA", "value": "0.40 % of total proteins"}, {"measurement": "% of total proteins With LA", "value": "2.00 % of total proteins"}, {"measurement": "abundance compared with respective counterparts identified for reactions A and B", "setting": "proteomics of Ralstonia eutropha DSM428", "value": "more abundant"}]}
{"molecule": "ACSA_CUPNH: Acetyl-coenzyme A synthetase (EC 6.2.1.1), putative candidate for reaction A1 (protein, UniProt P31638 1-660, looked up) Acetyl-coenzyme A synthetase: MSAIESVMQEHRVFNPPEGFASQAAIPSMEAYQALCDEAERDYEGFWARHARELLHWTKPFTKVLDQSNAPFYKWFEDGELNASYNCLDRNLQNGNADKVAIVFEADDGSVTRVTYRELHGKVCRFANGLKALGIRKGDRVVIYMPMSVEGVVAMQACARLGATHSVVFGGFSAKSLQERLVDVGAVALITADEQMRGGKALPLKAIADDALALGGCEAVRNVIVYRRTGGKVAWTEGRDRWMEDVSAGQPDTCEAEPVSAEHPLFVLYTSGSTGKPKGVQHSTGGYLLWALMTMKWTFDIKPDDLFWCTADIGWVTGHTYIAYGPLAAGATQVVFEGVPTYPNAGRFWDMIARHKVSIFYTAPTAIRSLIKAAEADEKIHPKQYDLSSLRLLGTVGEPINPEAWMWYYKNIGNERCPIVDTFWQTETGGHMITPLPGATPLVPGSCTLPLPGIMAAIVDETGHDVPNGNGGILVVKRPWPAMIRTIWGDPERFRKSYFPEELGGKLYLAGDGSIRDKDTGYFTIMGRIDDVLNVSGHRMGTMEIESALVSNPLVAEAAVVGRPDDMTGEAICAFVVLKRSRPTGEEAVKIATELRNWVGKEIGPIAKPKDIRFGDNLPKTRSGKIMRRLLRSLAKGEEITQDTSTLENPAILEQLKQAQ", "values": [{"measurement": "expression level in response to levulinic acid (protein abundance, % of total proteins)", "value": "not overexpressed"}, {"measurement": "% of total proteins Without LA", "value": "0.52 % of total proteins"}, {"measurement": "% of total proteins With LA", "value": "0.33 % of total proteins"}]}
{"molecule": "PHBB_CUPNH (protein, UniProt P14697 1-246, looked up) Acetoacetyl-CoA reductase: MTQRIAYVTGGMGGIGTAICQRLAKDGFRVVAGCGPNSPRREKWLEQQKALGFDFIASEGNVADWDSTKTAFDKVKSEVGEVDVLINNAGITRDVVFRKMTRADWDAVIDTNLTSLFNVTKQVIDGMADRGWGRIVNISSVNGQKGQFGQTNYSTAKAGLHGFTMALAQEVATKGVTVNTVSPGYIATDMVKAIRQDVLDKIVATIPVKRLGLPEEIASICAWLSSEESGFSTGADFSLNGGLHMG", "values": [{"measurement": "% of total proteins Without LA", "value": "1.14 % of total proteins"}, {"measurement": "% of total proteins With LA", "value": "0.85 % of total proteins"}]}
{"molecule": "PNP_CUPNH (protein, UniProt Q0KCT4 1-723, looked up) Polyribonucleotide …: MSMFNKIVKEFQWGQHTVRMETGEIARQAGGAVLVDVEDTVVLATVVAAKNPKPGQDFFPLTVDYIEKTYAAGKIPGGFFKREGRPSENETLTSRLIDRPLRPLFPEGFYNDVQVVIHVVSLNPEVPADIPALIGASAALAVSGIPFNGPVGAARVGYKDGQYLLNPTRSQLATSDLDLVVAGTERAVLMVESEANQLSEDVMLGAVVYGHEQMQIAINAIHELVREGGKPEWDWAPAAKNEPLIAKVTEVALPLLQEAYQLRQKSARSQKLKEVNANVAAALAAAGVEADKVEVGNIMFDLEAKIVRGQVLAGEPRIDGRDTRTVRPIEIRSSVLPRAHGSALFTRGETQALVVATLGTKSDEQIIDALAGEYRDRFMLHYNMPPFATGETGRVGSPKRREIGHGRLAKRALIPVLPKDDEFAYTIRLVSEITESNGSSSMASVCGGCLALMDAGVPVKAHVAGVAMGLILEGNKFAVLTDILGDEDHLGDMDFKVAGTDNGITALQMDIKVQGITKEIMQVALAQAREGRLHILHKMQEAMGHARTELSAHAPRMITMKIHPDKIREVIGKGGSTIQALTKETGTTIDIQEDGTITIASTSTDGMAEAKRRIEGITAEAEVGKIYAGTVLKLLDFGAIVNILPGKDGLLHISEIVNERVKDIKDWLKEGQQVRVKLIQADEKGRLRLSLKAALTEEGGSISPINAGEAAAPAAPAEGSEQQ", "values": [{"measurement": "% of total proteins Without LA", "value": "0.59 % of total proteins"}, {"measurement": "% of total proteins With LA", "value": "0.61 % of total proteins"}]}
{"molecule": "ACOA_CUPNH (protein, UniProt P27745 2-333, looked up) Acetoin:2,6-dichlorophenolindo …: TARASQDSAALPLDKETLLTVYRKMRTIRDFEERLHVDFGRGDIPGFVHLYAGEEAAGVGILHHLNDGDRIASTHRGHGHCIAKGVDPVAMMKEIYGKKGGSCNGKGGSMHIADLSKGMMGANGILGAGAPLICGAALAAKFRGKGEVGITFCGDGASNQGTFLESLNLAAVWNLPVIFVIENNGYAESTSRDYGTAVDSYVDRAAGFGIPGVTVDGTDFFAVHEAAGEVIRRAREGGGPSLLECKMVRFYGHFEGDAQTYRAAGELDDIRANKDCLKLFGRAVTQAGVVAREELDTIDREVAALIEHAVQEAKAAPQPGPEDLLTDVYVSY", "values": [{"measurement": "% of total proteins Without LA", "value": "0.23 % of total proteins"}, {"measurement": "% of total proteins With LA", "value": "<0.06 % of total proteins"}]}
{"molecule": "ACOB_CUPNH (protein, UniProt P27746 2-338, looked up) Acetoin:2,6-dichlorophenolindo …: ARKLSIKLAINEAIDQEMTRDPSVIMLGEDIVGGAGADGEKDAWGGVLGVTKGLYAKHGDRLLDTPLSESAYVGAAIGAAACGMRPIAELMFIDFMGVCFDQIFNQAAKFRYMFGGKAETPVVIRAMVGAGFRAAAQHSQMLTPLFTHIPGLKVVCPSTPYDTKGLLIQAIRDNDPVIFCEHKNLYGLEGEVPEGAYAIPFGEANIVRDGKDVSIVTYGLMVHRALEAAATLAKEGIEAEIVDLRTLSPLDMDTVLESVENTGRLVVVDEASPRCNIATDISAQVAQQAFGALKAGIEMVCPPHTPVPFSPTLEDLYIPSAAQIAAAARKTMKGGKH", "values": [{"measurement": "% of total proteins Without LA", "value": "0.42 % of total proteins"}, {"measurement": "% of total proteins With LA", "value": "<0.06 % of total proteins"}]}
{"molecule": "ACOC_CUPNH (protein, UniProt P27747 2-374, looked up) Dihydrolipoyllysine-residue …: ATEISPTIIPIVMPKWGLSMKEGTVNAWLVDEGTEITVGLPILDVETDKIANAVEAPDAGTLRRKVAQAGDVLPVKALLGVLAPAEVSDAQIDDYVAAYETPADDAGEEDAAAAYQFADVDGIRVRYARKGGGAETVLFIHGFGGDLDNWLFNLDPLADAYTVVALDLPGHGQSSPRLAGTTLAQMAGFVARFMDETGIEAAHVVGHSMGGGVAAQLAVDAPQRVLSVALVSPVGFGDAVNSGYTEGFVSAQSRRELKPVVELLFADAGLVSRQMLDDLLRYKRLDGVTEALTALGQGLFGGGRQSEQPGQRLANSGKRVLVVWGGQDQIIPAAHAEAAPPGATVKVFADAGHMSQMEKANDFNALLKKHLGG", "values": [{"measurement": "% of total proteins Without LA", "value": "0.29 % of total proteins"}, {"measurement": "% of total proteins With LA", "value": "<0.06 % of total proteins"}]}
{"molecule": "ACP_CUPNH (protein, UniProt Q0K8M2 1-79, looked up) Acyl carrier protein: MDNIEQRVKKIVAEQLGVAEADIKNESSFVNDLGADSLDTVELVMALEDEFGMEIPDEEAEKITTVQQAIDYATAHVKA", "values": [{"measurement": "% of total proteins Without LA", "value": "0.33 % of total proteins"}, {"measurement": "% of total proteins With LA", "value": "0.42 % of total proteins"}]}
{"molecule": "RPIA_CUPNH (protein, UniProt Q0K980 1-228, looked up) Ribose-5-phosphate isomerase A: MTQDELKALVAQAAADYVKQEVPEGAVLGVGTGSTANLFIDAVAAFKERFAGAVSSSEASTRRLQQHGFKVLDLNEVDEIPVYVDGADEIDASGAMIKGGGGALTREKIVASVAKRFVCIADGSKLVQTMGTFPLPVEVIPMARAAVARKLQALGGQPRLRMTKEGGIYKTDNGNVILDVAGLKIDDPRGLEQAVNQVPGVVTVGLFALRGADVLLLGTGDGVQRTDY", "values": [{"measurement": "% of total proteins Without LA", "value": "0.11 % of total proteins"}, {"measurement": "% of total proteins With LA", "value": "0.13 % of total proteins"}]}
